The other results are listed elsewhere or left out. Residues, ends and D or L forms follow the SMILES beside them. *: point of attachment. Cbz = O=C(OCc1ccccc1)*
Tests used:
Assay in all cases: log2 fold change, soluble protein after heating vs DMSO (PISA); higher = thermal stabilisation; K562 cells, 10 uM, 30 min; active = over 0.2 and 3.5 SD of the protein, either way, in both replicates (recomputed)
erlotinib = compound: C#Cc1cccc(Nc2ncnc3cc(OCCOC)c(OCCOC)cc23)c1 [erlotinib]
Method in brief: (§1)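 K562 cells at 2×10^6 cells/mL were treated for 30 min with 10 μM compound, and aliquots were heated for 3 min over 48°C-58°C before pooling. Extraction used PBS with 0.5% NP-40 at 4°C, and soluble protein was the supernatant after 21,000xg for 90 min, measured by TMTpro 16plex LC-MS/MS with channel sums equalised. Thermal stability values, relative to control samples and from duplicates, are log2 fold changes.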

Chains of the proteins cited; added tags and fusions are not shown. Lines headed by an entry give the natural chain unless they say otherwise; changes in a name come on top.
UniProt Q5JSH3: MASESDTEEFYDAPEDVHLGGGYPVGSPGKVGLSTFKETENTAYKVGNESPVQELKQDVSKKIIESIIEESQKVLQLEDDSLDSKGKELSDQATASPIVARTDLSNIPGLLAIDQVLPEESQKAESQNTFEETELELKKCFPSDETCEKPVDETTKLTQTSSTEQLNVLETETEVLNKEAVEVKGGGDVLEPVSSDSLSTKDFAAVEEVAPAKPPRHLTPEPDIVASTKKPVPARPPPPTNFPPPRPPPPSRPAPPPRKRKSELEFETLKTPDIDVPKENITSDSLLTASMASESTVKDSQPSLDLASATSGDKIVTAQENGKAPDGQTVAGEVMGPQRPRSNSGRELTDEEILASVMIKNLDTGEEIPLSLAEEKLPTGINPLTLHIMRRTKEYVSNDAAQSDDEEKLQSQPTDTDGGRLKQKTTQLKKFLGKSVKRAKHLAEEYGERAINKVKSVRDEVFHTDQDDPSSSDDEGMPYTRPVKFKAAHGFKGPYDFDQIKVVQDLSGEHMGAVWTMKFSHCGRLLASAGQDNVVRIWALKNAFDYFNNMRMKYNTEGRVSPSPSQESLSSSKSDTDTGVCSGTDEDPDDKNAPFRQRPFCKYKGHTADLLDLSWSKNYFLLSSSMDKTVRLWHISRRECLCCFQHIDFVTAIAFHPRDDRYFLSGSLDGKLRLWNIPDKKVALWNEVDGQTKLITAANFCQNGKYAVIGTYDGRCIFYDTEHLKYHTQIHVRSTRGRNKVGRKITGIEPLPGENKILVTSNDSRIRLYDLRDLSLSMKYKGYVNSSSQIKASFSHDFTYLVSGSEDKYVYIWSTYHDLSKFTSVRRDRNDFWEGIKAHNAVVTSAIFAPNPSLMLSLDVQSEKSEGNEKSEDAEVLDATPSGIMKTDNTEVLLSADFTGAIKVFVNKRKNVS
UniProt Q86VN1: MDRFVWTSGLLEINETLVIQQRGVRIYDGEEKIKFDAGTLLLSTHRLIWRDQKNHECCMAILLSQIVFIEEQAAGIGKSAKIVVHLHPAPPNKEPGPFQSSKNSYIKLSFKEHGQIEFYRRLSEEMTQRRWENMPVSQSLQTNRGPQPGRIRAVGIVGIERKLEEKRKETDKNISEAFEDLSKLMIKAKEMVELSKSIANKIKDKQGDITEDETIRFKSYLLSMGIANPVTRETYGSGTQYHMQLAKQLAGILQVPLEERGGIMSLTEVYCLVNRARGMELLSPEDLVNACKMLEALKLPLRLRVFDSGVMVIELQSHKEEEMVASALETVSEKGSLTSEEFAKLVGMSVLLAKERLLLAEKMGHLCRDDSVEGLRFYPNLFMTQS
UniProt P04004: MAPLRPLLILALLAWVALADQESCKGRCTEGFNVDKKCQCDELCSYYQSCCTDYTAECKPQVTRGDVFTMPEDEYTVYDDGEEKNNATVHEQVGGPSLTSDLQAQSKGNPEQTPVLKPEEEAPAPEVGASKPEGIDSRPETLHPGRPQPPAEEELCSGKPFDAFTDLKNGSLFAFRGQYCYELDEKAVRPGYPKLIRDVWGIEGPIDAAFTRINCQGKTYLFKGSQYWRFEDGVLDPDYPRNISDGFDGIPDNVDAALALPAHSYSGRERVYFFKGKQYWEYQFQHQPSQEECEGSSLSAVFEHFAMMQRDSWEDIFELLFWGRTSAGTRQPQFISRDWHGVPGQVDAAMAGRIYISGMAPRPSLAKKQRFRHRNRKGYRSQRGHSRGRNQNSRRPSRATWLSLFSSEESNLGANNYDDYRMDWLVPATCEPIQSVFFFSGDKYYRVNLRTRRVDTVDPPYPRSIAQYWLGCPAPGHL
UniProt Q5MNZ9: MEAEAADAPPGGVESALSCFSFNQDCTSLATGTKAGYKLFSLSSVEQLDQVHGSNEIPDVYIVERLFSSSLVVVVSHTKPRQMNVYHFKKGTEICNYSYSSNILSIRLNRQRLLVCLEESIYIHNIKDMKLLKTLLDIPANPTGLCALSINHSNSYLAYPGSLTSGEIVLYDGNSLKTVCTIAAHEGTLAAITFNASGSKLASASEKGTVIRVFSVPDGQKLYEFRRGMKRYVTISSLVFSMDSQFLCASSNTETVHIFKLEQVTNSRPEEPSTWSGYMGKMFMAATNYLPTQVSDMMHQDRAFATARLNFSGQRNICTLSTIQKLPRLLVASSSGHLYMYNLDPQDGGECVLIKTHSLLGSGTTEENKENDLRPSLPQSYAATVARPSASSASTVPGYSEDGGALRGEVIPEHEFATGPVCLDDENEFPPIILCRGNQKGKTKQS
UniProt O75083: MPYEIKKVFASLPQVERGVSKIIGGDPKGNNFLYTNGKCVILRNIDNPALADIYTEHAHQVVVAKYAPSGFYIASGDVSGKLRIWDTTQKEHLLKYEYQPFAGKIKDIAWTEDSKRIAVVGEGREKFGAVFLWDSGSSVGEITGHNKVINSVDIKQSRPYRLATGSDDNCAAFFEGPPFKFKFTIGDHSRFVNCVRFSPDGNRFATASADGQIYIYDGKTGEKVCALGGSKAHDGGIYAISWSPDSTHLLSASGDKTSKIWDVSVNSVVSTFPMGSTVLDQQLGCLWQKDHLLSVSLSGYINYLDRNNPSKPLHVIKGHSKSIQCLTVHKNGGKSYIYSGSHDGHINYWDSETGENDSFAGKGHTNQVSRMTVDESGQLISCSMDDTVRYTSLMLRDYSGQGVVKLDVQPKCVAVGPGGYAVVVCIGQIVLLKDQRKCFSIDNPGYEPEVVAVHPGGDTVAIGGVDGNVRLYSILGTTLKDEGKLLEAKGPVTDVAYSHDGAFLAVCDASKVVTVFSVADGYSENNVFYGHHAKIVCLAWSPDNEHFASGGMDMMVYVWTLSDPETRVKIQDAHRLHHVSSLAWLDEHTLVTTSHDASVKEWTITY
UniProt Q9NW82: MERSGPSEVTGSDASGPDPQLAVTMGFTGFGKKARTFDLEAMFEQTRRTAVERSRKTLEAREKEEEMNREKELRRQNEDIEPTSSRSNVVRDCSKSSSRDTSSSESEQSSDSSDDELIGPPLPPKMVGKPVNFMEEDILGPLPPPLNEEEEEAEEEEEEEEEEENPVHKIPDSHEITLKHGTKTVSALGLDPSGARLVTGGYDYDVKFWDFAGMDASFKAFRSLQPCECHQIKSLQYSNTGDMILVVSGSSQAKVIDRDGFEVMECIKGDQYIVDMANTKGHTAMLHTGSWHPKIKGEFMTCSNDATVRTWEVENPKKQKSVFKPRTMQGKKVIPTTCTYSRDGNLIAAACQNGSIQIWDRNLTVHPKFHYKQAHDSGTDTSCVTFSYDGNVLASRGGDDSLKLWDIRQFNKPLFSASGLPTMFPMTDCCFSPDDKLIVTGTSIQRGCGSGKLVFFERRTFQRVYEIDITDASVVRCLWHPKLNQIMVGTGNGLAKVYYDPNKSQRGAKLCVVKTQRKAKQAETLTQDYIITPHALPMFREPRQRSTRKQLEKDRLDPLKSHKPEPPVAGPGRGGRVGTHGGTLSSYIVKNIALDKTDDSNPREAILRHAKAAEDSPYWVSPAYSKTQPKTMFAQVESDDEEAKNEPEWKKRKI
UniProt O75351, whole entry, looked up: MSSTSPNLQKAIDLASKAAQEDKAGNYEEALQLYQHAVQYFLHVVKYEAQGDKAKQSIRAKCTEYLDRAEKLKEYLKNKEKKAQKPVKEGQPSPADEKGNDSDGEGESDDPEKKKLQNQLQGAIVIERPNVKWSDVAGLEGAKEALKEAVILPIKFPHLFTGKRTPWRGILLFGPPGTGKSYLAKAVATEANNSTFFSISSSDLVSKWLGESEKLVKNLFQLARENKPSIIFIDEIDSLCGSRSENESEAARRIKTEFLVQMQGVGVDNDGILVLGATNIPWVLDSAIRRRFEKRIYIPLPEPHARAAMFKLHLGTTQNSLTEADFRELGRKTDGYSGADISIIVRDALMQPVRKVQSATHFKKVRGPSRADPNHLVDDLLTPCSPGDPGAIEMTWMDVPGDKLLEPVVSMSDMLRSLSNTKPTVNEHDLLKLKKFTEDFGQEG

[1] = compound: C/C(=N\NC(=O)C1=CC(=CC=C1)S(=O)(=O)N2CCOCC2)/C3=C(C=CC(=C3)Cl)O
Method in brief: as §1

[2] = compound: C1=CC(=C(C=C1Cl)C2=NC3=NC=CN=C3C(=N2)NC4=CC=NC=C4)F
Method in brief: as §1

[3] = compound: C1=CC(=CC=C1C2=NC3=C(N2)C=C(C=C3)C(=O)N)OC4=CC=C(C=C4)Cl
Method in brief: as §1

[4] = compound: C1=CC2=C(C=CC(=C2)/C=C\3/C(=O)NC(=NCC4=CC=CS4)S3)N=C1
Method in brief: as §1

[5] = compound: C1=CC2=NC=CN=C2C=C1/C=C/3\C(=O)NC(=O)S3
Method in brief: as §1

[6] = compound: C1=CC=C(C=C1)C2=NC(=C(N2)C3=CC=NC=C3)C4=CC(=C(C=C4)Cl)O
Method in brief: as §1

[7] = compound: C1=CC=C2C(=C1)C3=NNC4=CC=CC(=C43)C2=O
Method in brief: as §1

[8] = compound: C1CCN(C1)C(=O)NC2=CC=CC(=C2)NC3=NC=C(C(=N3)NCCC4=CN=CN4)Br
Method in brief: as §1

[9] = compound: C1CN(CCC1(CC2=CC=C(C=C2)Cl)N)C3=NC=NC4=C3C=CN4
Method in brief: as §1

IRAK-1-4 Inhibitor I = compound: C1COCCN1CCN2C3=CC=CC=C3N=C2NC(=O)C4=CC(=CC=C4)[N+](=O)[O-] [IRAK-1-4 Inhibitor I]
Method in brief: as §1

ibrutinib = compound: C=CC(=O)N1CCC[C@@H](n2nc(-c3ccc(Oc4ccccc4)cc3)c3c(N)ncnc32)C1 [ibrutinib]
Method in brief: as §1

[10] = compound: CC(=O)c1cnc2ccc(-c3cc(Cl)c(O)c(Cl)c3)nc2c1N[C@H]1CC[C@H](CN(C)C)CC1
Method in brief: as §1

ralimetinib = compound: CC(C)(C)Cn1c(N)nc2ccc(-c3[nH]c(C(C)(C)C)nc3-c3ccc(F)cc3)nc21 [ralimetinib]
Method in brief: as §1

[11] = compound: CC(C)(O)CC(=O)NCCn1ccc2ncnc(Nc3ccc(Oc4cccc(C(F)(F)F)c4)c(Cl)c3)c21
Method in brief: as §1

[12] = compound: CC(C)C1=C2N=C(C=C(N2N=C1)NCC3=CC=CC=C3)NCCCCCCN
Method in brief: as §1

[13] = compound: CC(C)C[C@@H](C=O)NC(=O)[C@H](CC(C)C)NC(=O)[C@H](CC(C)C)NC(=O)OCc1ccccc1
Method in brief: as §1

pinometostat = compound: CC(C)N(C[C@H]1O[C@@H](n2cnc3c(N)ncnc32)[C@H](O)[C@@H]1O)[C@H]1C[C@@H](CCc2nc3cc(C(C)(C)C)ccc3[nH]2)C1 [pinometostat]
Method in brief: as §1

[14] = compound: CC1=C(C(CC(=O)N1)C2=CC=C(C=C2)C(F)(F)F)C(=O)NC3=C(C=C4C(=C3)C=NN4)F
Method in brief: as §1

[15] = compound: CC1=C(C2=C(C=C1)C(=O)C3=CC=CC=C3N2CCCN)C
Method in brief: as §1

Measured: log2 fold change

WDR44 (UniProt Q5JSH3)
inactive: erlotinib 0.008 | [1] 0.01 | [2] 0.089 | [3] -0.002 | [4] 0.02 | [5] 0.002 | [6] -0.017 | [7] -0.009 | [8] 0.021 | [9] 0.073 | IRAK-1-4 Inhibitor I 0.018 | ibrutinib 0.022 | [10] -0.005 | ralimetinib -0.067 | [11] 0.002 | [12] 0.053 | [13] -0.001 | pinometostat -0.049 | [14] 0.002 | [15] 0.015

VPS36 (UniProt Q86VN1)
inactive: erlotinib 0.033 | [1] 0.058 | [2] 0.094 | [3] 0.008 | [4] 0.038 | [5] 0.042 | [6] -0.009 | [7] 0.014 | [8] 0.022 | [9] 0.053 | IRAK-1-4 Inhibitor I -0.037 | ibrutinib -0.015 | [10] -0.018 | ralimetinib -0.028 | [11] -0.006 | [12] -0.027 | [13] 0.043 | pinometostat -0.012 | [14] -0.012 | [15] 0.056

VTN (UniProt P04004)
inactive: erlotinib -0.029 | [1] -0.153 | [2] -0.035 | [3] 0.093 | [4] 0.092 | [5] 0 | [6] 0.015 | [7] -0.095 | [8] 0.084 | [9] 0.048 | IRAK-1-4 Inhibitor I -0.057 | ibrutinib 0.09 | [10] 0.103 | ralimetinib -0.087 | [11] 0.222 | [12] 0.101 | [13] 0.238 | pinometostat -0.038 | [14] 0.012 | [15] -0.212

WIPI1 (UniProt Q5MNZ9)
inactive: erlotinib -0.023 | [1] 0.034 | [2] 0.152 | [3] 0.025 | [4] 0.033 | [5] -0.046 | [6] -0.003 | [7] -0.071 | [8] 0.05 | [9] 0.026 | IRAK-1-4 Inhibitor I 0.015 | ibrutinib 0.015 | [10] 0 | ralimetinib 0.072 | [11] 0.048 | [12] 0.101 | [13] 0.015 | pinometostat -0.075 | [14] -0.08 | [15] -0.099

Retrieved one by one from the list above (two):
VTN (UniProt P04004)
inactive: erlotinib -0.029 | [1] -0.153 | [2] -0.035 | [3] 0.093 | [4] 0.092 | [5] 0 | [6] 0.015 | [7] -0.095 | [8] 0.084 | [9] 0.048 | IRAK-1-4 Inhibitor I -0.057 | ibrutinib 0.09 | [10] 0.103 | ralimetinib -0.087 | [11] 0.222 | [12] 0.101 | [13] 0.238 | pinometostat -0.038 | [14] 0.012 | [15] -0.212

WDR44 (UniProt Q5JSH3)
inactive: erlotinib 0.008 | [1] 0.01 | [2] 0.089 | [3] -0.002 | [4] 0.02 | [5] 0.002 | [6] -0.017 | [7] -0.009 | [8] 0.021 | [9] 0.073 | IRAK-1-4 Inhibitor I 0.018 | ibrutinib 0.022 | [10] -0.005 | ralimetinib -0.067 | [11] 0.002 | [12] 0.053 | [13] -0.001 | pinometostat -0.049 | [14] 0.002 | [15] 0.015

Later entries:

WDR1 (UniProt O75083)
inactive: erlotinib -0.019 | [1] 0.077 | [2] 0.071 | [3] 0.023 | [4] 0.062 | [5] -0.015 | [6] 0.054 | [7] 0.007 | [8] 0.015 | [9] -0.007 | IRAK-1-4 Inhibitor I 0.015 | ibrutinib 0.002 | [10] -0.006 | ralimetinib -0.028 | [11] -0.041 | [12] -0.049 | [13] -0.034 | pinometostat -0.011 | [14] -0.026 | [15] 0.066

WDR70 (UniProt Q9NW82)
inactive: erlotinib -0.013 | [1] 0.032 | [2] 0.061 | [3] 0.002 | [4] 0.014 | [5] 0.029 | [6] -0.039 | [7] 0.004 | [8] -0.039 | [9] -0.01 | IRAK-1-4 Inhibitor I 0.033 | ibrutinib -0.009 | [10] -0.017 | ralimetinib -0.008 | [11] -0.006 | [12] 0.009 | [13] 0.016 | pinometostat -0.033 | [14] -0.028 | [15] 0.04

VPS4B (UniProt O75351)
inactive: erlotinib -0.012 | [1] 0.071 | [2] 0.033 | [3] -0.014 | [4] 0.015 | [5] 0.004 | [6] -0.019 | [7] 0.018 | [8] 0.032 | [9] -0.004 | IRAK-1-4 Inhibitor I 0.046 | ibrutinib 0.007 | [10] -0.019 | ralimetinib -0.077 | [11] -0.086 | [12] -0.076 | [13] 0.026 | pinometostat -0.004 | [14] -0.007 | [15] 0.054

WDTC1 (UniProt Q8N5D0)
inactive: erlotinib 0.024 | [1] 0.066 | [2] -0.089 | [3] 0.026 | [4] 0.037 | [5] 0.061 | [6] -0.035 | [7] 0.077 | [8] -0.137 | [9] -0.005 | IRAK-1-4 Inhibitor I -0.077 | ibrutinib 0.043 | [10] 0.072 | ralimetinib -0.021 | [11] -0.015 | [12] 0.014 | [13] 0.038 | pinometostat 0.056 | [14] 0.014 | [15] 0.172

Reference: the supplement of paper PMC10849652
